Measured values published in PMC2904775.
No constants are given. Whether binding was seen depends on the method and setting. Binding seen in cells or lysates may run through a third protein. Sequences can lack the tags named with a protein.

Molecular target: T1, HA-UPF1, Q9FJR0
T1 chain: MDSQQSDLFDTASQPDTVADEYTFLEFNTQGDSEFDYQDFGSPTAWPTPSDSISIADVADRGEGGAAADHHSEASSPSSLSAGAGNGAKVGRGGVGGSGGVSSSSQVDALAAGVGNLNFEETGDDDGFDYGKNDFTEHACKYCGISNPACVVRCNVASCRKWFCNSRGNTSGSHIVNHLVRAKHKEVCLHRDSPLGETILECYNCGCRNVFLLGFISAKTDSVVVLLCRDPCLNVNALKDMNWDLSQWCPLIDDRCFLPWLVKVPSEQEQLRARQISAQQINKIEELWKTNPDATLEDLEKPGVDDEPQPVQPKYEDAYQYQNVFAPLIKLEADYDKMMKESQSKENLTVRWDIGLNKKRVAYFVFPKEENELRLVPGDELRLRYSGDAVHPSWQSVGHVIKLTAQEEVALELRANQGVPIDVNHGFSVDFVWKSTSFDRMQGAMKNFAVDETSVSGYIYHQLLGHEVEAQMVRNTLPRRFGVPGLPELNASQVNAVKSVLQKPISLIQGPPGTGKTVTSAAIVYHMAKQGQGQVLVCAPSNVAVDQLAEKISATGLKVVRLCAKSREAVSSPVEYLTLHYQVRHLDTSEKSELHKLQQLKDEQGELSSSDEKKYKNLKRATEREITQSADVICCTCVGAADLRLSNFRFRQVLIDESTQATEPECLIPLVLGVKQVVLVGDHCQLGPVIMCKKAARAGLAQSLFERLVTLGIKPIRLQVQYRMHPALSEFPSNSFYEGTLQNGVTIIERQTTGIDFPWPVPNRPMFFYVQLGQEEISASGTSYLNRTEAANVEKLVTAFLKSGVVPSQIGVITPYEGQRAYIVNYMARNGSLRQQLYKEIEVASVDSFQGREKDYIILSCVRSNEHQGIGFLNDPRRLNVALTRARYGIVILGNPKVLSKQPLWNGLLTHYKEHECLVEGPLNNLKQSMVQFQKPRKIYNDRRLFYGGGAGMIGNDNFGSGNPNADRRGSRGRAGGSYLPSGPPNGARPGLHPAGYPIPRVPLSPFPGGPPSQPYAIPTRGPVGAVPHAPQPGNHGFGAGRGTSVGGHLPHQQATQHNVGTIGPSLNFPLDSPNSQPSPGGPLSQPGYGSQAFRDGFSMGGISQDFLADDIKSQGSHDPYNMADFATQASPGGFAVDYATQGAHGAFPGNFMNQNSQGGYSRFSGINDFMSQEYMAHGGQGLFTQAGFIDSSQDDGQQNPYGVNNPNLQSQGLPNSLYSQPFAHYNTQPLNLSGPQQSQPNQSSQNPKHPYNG
Test: co-IP; HA-tagged proteins precipitated with anti-HA beads from extracts of agroinfiltrated N. benthamiana leaves (3 dpi) co-expressing 6×myc-AtAGO1 and GFP-IR; IP buffer 30 mM TRIS pH 7.5, 150 mM NaCl, 5 mM MgCl2, 5 mM DTT, 10% glycerol, 1 hour at 4°C; Western blot with anti-myc and anti-HA
Details: remark: other sources report otherwise

B1: 6×myc-tagged AGO1 of Arabidopsis thaliana (myc-AGO1), O04379 1-1048 (protein)
chain: MVRKRRTDAPSEGGEGSGSREAGPVSGGGRGSQRGGFQQGGGQHQGGRGYTPQPQQGGRGGRGYGQPPQQQQQYGGPQEYQGRGRGGPPHQGGRGGYGGGRGGGPSSGPPQRQSVPELHQATSPTYQAVSSQPTLSEVSPTQVPEPTVLAQQFEQLSVEQGAPSQAIQPIPSSSKAFKFPMRPGKGQSGKRCIVKANHFFAELPDKDLHHYDVTITPEVTSRGVNRAVMKQLVDNYRDSHLGSRLPAYDGRKSLYTAGPLPFNSKEFRINLLDEEVGAGGQRREREFKVVIKLVARADLHHLGMFLEGKQSDAPQEALQVLDIVLRELPTSRYIPVGRSFYSPDIGKKQSLGDGLESWRGFYQSIRPTQMGLSLNIDMSSTAFIEANPVIQFVCDLLNRDISSRPLSDADRVKIKKALRGVKVEVTHRGNMRRKYRISGLTAVATRELTFPVDERNTQKSVVEYFHETYGFRIQHTQLPCLQVGNSNRPNYLPMEVCKIVEGQRYSKRLNERQITALLKVTCQRPIDREKDILQTVQLNDYAKDNYAQEFGIKISTSLASVEARILPPPWLKYHESGREGTCLPQVGQWNMMNKKMINGGTVNNWICINFSRQVQDNLARTFCQELAQMCYVSGMAFNPEPVLPPVSARPEQVEKVLKTRYHDATSKLSQGKEIDLLIVILPDNNGSLYGDLKRICETELGIVSQCCLTKHVFKMSKQYMANVALKINVKVGGRNTVLVDALSRRIPLVSDRPTIIFGADVTHPHPGEDSSPSIAAVVASQDWPEITKYAGLVCAQAHRQELIQDLFKEWKDPQKGVVTGGMIKELLIAFRRSTGHKPLRIIFYRDGVSEGQFYQVLLYELDAIRKACASLEAGYQPPVTFVVVQKRHHTRLFAQNHNDRHSVDRSGNILPGTVVDSKICHPTEFDFYLCSHAGIQGTSRPAHYHVLWDENNFTADGLQSLTNNLCYTYARCTRSVSIVPPAYYAHLAAFRARFYMEPETSDSGSMASGSMARGGGMAGRSTRGPNVNAAVRPLPALKENVKRVMFYC
binding: no binding
